Common to all, as to test: co-IP
For assay [1], the target named is HA-tagged Gli2 (stable NIH/3T3 Flp-In cell line) (mouse) (UniProt Q0VGT2).
The target in the next assay is HA-tagged Gli1 (mouse) (UniProt P47806).
The target in assay [2] is HA-tagged Gli2 (transiently expressed in HEK293T) (mouse) (UniProt Q0VGT2).

Amino acid sequences for entries named in this document (tags omitted).
UniProt Q0VGT2: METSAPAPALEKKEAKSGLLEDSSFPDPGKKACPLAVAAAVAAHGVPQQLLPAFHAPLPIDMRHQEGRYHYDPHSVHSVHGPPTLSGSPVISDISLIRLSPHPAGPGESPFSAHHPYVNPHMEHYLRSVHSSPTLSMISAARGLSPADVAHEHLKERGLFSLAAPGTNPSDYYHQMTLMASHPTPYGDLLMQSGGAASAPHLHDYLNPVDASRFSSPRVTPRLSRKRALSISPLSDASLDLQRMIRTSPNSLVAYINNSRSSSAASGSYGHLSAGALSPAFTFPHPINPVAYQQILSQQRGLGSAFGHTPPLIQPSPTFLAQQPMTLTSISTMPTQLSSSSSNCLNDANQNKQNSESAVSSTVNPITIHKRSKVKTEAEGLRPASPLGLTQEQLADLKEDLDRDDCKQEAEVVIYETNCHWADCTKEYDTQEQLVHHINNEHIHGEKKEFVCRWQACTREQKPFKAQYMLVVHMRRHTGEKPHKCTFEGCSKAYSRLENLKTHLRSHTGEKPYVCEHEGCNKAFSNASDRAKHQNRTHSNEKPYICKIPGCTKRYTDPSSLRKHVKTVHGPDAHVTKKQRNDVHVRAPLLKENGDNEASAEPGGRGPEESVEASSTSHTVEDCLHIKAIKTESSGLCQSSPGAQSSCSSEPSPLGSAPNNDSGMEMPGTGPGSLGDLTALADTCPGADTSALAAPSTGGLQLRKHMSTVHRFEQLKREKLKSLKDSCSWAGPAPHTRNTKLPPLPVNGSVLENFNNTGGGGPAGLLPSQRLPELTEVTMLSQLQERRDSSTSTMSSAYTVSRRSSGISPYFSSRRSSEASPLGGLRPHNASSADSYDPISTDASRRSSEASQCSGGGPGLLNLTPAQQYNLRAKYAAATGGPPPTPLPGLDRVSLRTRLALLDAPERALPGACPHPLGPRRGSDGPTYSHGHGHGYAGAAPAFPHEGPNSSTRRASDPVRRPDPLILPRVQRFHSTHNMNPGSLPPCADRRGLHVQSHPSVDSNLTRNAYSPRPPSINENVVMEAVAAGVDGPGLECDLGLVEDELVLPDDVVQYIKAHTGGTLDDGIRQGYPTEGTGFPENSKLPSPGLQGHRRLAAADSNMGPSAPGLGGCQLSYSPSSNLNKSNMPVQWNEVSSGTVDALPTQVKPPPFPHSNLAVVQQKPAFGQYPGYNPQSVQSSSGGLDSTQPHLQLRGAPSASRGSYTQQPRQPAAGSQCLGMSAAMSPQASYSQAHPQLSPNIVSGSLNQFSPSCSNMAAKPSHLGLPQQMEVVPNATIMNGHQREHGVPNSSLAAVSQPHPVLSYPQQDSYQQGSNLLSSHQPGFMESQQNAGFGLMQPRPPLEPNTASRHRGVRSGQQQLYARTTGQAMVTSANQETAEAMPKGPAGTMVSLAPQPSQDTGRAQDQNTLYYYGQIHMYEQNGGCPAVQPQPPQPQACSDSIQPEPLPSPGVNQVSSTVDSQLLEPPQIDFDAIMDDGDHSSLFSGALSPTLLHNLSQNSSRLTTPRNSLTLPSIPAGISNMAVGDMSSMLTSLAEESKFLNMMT
UniProt P47806: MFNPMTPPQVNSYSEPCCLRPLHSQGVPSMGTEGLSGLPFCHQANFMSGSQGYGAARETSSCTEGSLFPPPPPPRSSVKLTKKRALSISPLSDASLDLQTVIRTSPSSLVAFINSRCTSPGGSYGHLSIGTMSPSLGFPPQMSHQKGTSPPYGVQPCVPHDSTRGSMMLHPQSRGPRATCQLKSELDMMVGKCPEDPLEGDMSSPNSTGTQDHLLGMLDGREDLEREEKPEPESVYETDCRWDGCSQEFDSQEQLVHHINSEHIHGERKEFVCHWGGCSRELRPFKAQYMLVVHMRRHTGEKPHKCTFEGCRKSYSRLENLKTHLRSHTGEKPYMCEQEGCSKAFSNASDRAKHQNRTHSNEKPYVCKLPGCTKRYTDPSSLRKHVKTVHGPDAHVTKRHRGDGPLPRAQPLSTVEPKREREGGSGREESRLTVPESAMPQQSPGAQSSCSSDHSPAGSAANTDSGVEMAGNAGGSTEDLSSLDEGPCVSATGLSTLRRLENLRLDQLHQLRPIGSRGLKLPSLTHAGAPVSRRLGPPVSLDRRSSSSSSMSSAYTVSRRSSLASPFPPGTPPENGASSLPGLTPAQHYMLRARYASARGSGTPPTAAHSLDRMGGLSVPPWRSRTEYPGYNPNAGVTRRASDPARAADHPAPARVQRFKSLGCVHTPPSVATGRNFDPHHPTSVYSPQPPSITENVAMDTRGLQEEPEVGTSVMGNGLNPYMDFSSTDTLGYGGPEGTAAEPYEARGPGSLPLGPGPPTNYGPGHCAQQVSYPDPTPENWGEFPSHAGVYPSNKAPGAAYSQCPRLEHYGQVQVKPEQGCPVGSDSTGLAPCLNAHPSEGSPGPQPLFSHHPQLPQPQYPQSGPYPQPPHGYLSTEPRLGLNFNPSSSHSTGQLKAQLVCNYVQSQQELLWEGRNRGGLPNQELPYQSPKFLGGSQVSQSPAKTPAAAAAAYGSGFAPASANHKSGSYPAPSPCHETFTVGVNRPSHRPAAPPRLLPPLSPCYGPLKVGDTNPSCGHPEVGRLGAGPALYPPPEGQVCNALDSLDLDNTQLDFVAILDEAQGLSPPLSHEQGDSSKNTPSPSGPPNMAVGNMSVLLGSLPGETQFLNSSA

No constants are given. Whether binding was seen depends on the method and setting. Binding seen in cells or lysates may run through a third protein. Some entries that bind do so weakly or less than the wild type. For some of these results: Where a sequence is shown, tags or fusion partners need not be part of it.

B1: Suppressor of Fused (SuFu), endogenous (protein, UniProt Q9Z0P7 1-484)
chain: MAELRPSVAPGPAAPPASGPSAPPAFASLFPPGLHAIYGECRRLYPDQPNPLQVTAIVKYWLGGPDPLDYVSMYRNMGSPSANIPEHWHYISFGLSDLYGDNRVHEFTGTDGPSGFGFELTFRLKRETGESAPPTWPAELMQGLARYVFQSENTFCSGDHVSWHSPLDNSESRIQHMLLTEDPQMQPVRTPFGVVTFLQIVGVCTEELHSAQQWNGQGILELLRTVPIAGGPWLITDMRRGETIFEIDPHLQERVDKGIETDGSNLSGVSAKCAWDDLSRPPEDEEDSRSICLGTQPRRLSGKDTEQIRETLRRGLEINSKPVLPPINSQRQNGLTHDRAPSRKDSLGSDSSTAIIPHELIRTRQLESVHLKFNQESGALIPLCLRGRLLHGRHFTYKSITGDMAITFVSTGVEGAFATEEHPYAAHGPWLQILLTEEFVEKMLEDLEDLTSPEEFKLPKEYSWPEKKLKVSILPDVVFDSPLH
Turning to B1, the binding result in assay [1] was “binds”.

B2: endogenous Xpo7 (protein, UniProt Q9EPK7 1-1087)
chain: MADHVQSLAQLENLCKQLYETTDTTTRLQAEKALVEFTNSPDCLSKCQLLLERGSSSYSQLLAATCLTKLVSRTNNPLPLEQRIDIRNYVLNYLATRPKLATFVTQALIQLYARITKLGWFDCQKDDYVFRNAITDVTRFLQDSVEYCIIGVTILSQLTNEINQADTTHPLTKHRKIASSFRDSSLFDIFTLSCNLLKQASGKNLNLNDESQHGLLMQLLKLTHNCLNFDFIGTSTDESSDDLCTVQIPTSWRSAFLDSSTLQLFFDLYHSIPPSFSPLVLSCLVQIASVRRSLFNNAERAKFLSHLVDGVKRILENPQSLSDPNNYHEFCRLLARLKSNYQLGELVKVENYPDVIRLIANFTVTSLQHWEFAPNSVHYLLSLWQRLAASVPYVKATEPHMLETYTPEVTKAYITSRLESVHIILRDGLEDPLEDTGLVQQQLDQLSTIGRCEYEKTCALLVQLFDQSAQSYQELLQSASASPMDIAVQEGRLTWLVYIIGAVIGGRVSFASTDEQDAMDGELVCRVLQLMNLTDSRLAQAGNEKLELAMLSFFEQFRKIYIGDQVQKSSKLYRRLSEVLGLNDETMVLSVFIGKVITNLKYWGRCEPITSKTLQLLNDLSIGYSSVRKLVKLSAVQFMLNNHTSEHFSFLGINNQSNLTDMRCRTTFYTALGRLLMVDLGEDEDQYEQFMLPLTAAFEAVAQMFSTNSFNEQEAKRTLVGLVRDLRGIAFAFNAKTSFMMLFEWIYPSYMPILQRAIELWYHDPACTTPVLKLMAELVHNRSQRLQFDVSSPNGILLFRETSKMITMYGNRILTLGEVPKDQVYALKLKGISICFSMLKAALSGSYVNFGVFRLYGDDALENALQTFIKLLLSIPHSDLLDYPKLSQSYYSLLEVLTQDHMNFIASLEPHVIMYILSSISEGLTALDTMVCTGCCSCLDHIVTYLFKQLSRSTKKRTTPLNRESDCFLHIMQQHPAMIQQMLSTVLNIIIFEDCRNQWSMSRPLLGLILLNEKYFSDLRNSIVNSQPPEKQQAMHLCFENLMEGIERNLLTKNRDRFTQNLSAFRREVNDSMKNSTYGVNSNDMMS
Turning to B2, the binding result in assay [1] is “binds”.

B3: Xpo7 (overexpressed in HEK293T) (protein, UniProt Q9EPK7 1-1087)
chain: MADHVQSLAQLENLCKQLYETTDTTTRLQAEKALVEFTNSPDCLSKCQLLLERGSSSYSQLLAATCLTKLVSRTNNPLPLEQRIDIRNYVLNYLATRPKLATFVTQALIQLYARITKLGWFDCQKDDYVFRNAITDVTRFLQDSVEYCIIGVTILSQLTNEINQADTTHPLTKHRKIASSFRDSSLFDIFTLSCNLLKQASGKNLNLNDESQHGLLMQLLKLTHNCLNFDFIGTSTDESSDDLCTVQIPTSWRSAFLDSSTLQLFFDLYHSIPPSFSPLVLSCLVQIASVRRSLFNNAERAKFLSHLVDGVKRILENPQSLSDPNNYHEFCRLLARLKSNYQLGELVKVENYPDVIRLIANFTVTSLQHWEFAPNSVHYLLSLWQRLAASVPYVKATEPHMLETYTPEVTKAYITSRLESVHIILRDGLEDPLEDTGLVQQQLDQLSTIGRCEYEKTCALLVQLFDQSAQSYQELLQSASASPMDIAVQEGRLTWLVYIIGAVIGGRVSFASTDEQDAMDGELVCRVLQLMNLTDSRLAQAGNEKLELAMLSFFEQFRKIYIGDQVQKSSKLYRRLSEVLGLNDETMVLSVFIGKVITNLKYWGRCEPITSKTLQLLNDLSIGYSSVRKLVKLSAVQFMLNNHTSEHFSFLGINNQSNLTDMRCRTTFYTALGRLLMVDLGEDEDQYEQFMLPLTAAFEAVAQMFSTNSFNEQEAKRTLVGLVRDLRGIAFAFNAKTSFMMLFEWIYPSYMPILQRAIELWYHDPACTTPVLKLMAELVHNRSQRLQFDVSSPNGILLFRETSKMITMYGNRILTLGEVPKDQVYALKLKGISICFSMLKAALSGSYVNFGVFRLYGDDALENALQTFIKLLLSIPHSDLLDYPKLSQSYYSLLEVLTQDHMNFIASLEPHVIMYILSSISEGLTALDTMVCTGCCSCLDHIVTYLFKQLSRSTKKRTTPLNRESDCFLHIMQQHPAMIQQMLSTVLNIIIFEDCRNQWSMSRPLLGLILLNEKYFSDLRNSIVNSQPPEKQQAMHLCFENLMEGIERNLLTKNRDRFTQNLSAFRREVNDSMKNSTYGVNSNDMMS
Turning to B3, the values for the binding result (with HA-tagged Gli1 (mouse); in assay [2]) were “no binding” and “binds”, respectively.
